The values that follow come from article PMC12688176.

Chains of the proteins cited; added tags and fusions are not shown.
UniProt O14497: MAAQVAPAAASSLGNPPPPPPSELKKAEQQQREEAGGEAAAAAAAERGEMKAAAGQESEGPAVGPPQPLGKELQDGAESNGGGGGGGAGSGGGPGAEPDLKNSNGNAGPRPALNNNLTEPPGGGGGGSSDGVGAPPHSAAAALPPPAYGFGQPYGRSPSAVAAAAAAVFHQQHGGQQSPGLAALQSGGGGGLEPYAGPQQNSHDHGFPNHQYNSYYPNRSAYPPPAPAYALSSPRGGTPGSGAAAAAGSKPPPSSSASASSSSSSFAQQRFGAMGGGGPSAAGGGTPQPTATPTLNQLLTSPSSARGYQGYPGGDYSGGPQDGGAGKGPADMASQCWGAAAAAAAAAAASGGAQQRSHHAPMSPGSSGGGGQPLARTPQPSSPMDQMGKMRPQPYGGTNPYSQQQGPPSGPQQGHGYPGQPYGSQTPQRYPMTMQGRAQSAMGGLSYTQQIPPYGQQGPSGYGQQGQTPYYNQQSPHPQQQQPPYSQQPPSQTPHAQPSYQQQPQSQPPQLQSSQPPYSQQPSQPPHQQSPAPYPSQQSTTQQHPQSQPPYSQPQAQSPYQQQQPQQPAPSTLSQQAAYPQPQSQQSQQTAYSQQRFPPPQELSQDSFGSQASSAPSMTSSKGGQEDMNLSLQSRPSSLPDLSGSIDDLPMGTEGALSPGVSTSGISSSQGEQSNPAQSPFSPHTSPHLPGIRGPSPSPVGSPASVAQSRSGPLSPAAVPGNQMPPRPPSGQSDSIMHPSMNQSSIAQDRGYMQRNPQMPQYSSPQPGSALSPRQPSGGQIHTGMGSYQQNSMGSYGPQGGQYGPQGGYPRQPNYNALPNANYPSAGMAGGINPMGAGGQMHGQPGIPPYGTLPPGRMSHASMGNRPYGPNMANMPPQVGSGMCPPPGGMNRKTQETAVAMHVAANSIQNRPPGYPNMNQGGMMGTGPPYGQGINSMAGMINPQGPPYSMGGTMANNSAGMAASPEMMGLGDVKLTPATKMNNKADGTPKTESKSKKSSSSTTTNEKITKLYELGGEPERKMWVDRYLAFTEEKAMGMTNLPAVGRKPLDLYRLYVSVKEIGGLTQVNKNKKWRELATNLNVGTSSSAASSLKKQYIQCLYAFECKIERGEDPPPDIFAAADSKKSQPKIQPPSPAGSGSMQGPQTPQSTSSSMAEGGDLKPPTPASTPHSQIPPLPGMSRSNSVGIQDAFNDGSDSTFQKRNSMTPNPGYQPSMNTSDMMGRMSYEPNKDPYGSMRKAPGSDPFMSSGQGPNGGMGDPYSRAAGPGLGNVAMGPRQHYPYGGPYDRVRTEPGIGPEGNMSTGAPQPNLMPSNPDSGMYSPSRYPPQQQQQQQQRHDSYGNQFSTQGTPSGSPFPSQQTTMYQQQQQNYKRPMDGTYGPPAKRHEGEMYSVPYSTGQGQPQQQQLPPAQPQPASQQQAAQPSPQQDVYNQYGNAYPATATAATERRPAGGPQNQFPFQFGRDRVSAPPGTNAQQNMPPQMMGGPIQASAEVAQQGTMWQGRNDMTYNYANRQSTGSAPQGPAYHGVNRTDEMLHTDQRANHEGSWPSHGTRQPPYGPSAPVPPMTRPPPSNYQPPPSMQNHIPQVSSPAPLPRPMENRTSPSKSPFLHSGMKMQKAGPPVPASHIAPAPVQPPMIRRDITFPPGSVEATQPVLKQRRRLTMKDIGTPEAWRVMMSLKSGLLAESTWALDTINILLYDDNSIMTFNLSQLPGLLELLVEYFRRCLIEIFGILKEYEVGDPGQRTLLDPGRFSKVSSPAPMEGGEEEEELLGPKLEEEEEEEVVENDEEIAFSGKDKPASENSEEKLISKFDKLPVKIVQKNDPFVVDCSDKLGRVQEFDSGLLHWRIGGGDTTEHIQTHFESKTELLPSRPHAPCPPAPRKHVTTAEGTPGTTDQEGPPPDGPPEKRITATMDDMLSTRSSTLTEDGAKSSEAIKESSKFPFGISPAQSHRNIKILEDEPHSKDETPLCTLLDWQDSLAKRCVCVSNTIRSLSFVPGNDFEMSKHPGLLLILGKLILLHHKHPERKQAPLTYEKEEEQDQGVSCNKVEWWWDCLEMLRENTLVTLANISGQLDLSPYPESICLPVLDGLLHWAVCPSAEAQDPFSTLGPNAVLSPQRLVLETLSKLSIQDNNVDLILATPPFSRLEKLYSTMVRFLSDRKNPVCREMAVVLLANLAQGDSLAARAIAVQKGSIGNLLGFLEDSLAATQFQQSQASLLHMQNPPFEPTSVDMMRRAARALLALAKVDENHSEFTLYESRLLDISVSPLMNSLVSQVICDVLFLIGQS
UniProt P51532: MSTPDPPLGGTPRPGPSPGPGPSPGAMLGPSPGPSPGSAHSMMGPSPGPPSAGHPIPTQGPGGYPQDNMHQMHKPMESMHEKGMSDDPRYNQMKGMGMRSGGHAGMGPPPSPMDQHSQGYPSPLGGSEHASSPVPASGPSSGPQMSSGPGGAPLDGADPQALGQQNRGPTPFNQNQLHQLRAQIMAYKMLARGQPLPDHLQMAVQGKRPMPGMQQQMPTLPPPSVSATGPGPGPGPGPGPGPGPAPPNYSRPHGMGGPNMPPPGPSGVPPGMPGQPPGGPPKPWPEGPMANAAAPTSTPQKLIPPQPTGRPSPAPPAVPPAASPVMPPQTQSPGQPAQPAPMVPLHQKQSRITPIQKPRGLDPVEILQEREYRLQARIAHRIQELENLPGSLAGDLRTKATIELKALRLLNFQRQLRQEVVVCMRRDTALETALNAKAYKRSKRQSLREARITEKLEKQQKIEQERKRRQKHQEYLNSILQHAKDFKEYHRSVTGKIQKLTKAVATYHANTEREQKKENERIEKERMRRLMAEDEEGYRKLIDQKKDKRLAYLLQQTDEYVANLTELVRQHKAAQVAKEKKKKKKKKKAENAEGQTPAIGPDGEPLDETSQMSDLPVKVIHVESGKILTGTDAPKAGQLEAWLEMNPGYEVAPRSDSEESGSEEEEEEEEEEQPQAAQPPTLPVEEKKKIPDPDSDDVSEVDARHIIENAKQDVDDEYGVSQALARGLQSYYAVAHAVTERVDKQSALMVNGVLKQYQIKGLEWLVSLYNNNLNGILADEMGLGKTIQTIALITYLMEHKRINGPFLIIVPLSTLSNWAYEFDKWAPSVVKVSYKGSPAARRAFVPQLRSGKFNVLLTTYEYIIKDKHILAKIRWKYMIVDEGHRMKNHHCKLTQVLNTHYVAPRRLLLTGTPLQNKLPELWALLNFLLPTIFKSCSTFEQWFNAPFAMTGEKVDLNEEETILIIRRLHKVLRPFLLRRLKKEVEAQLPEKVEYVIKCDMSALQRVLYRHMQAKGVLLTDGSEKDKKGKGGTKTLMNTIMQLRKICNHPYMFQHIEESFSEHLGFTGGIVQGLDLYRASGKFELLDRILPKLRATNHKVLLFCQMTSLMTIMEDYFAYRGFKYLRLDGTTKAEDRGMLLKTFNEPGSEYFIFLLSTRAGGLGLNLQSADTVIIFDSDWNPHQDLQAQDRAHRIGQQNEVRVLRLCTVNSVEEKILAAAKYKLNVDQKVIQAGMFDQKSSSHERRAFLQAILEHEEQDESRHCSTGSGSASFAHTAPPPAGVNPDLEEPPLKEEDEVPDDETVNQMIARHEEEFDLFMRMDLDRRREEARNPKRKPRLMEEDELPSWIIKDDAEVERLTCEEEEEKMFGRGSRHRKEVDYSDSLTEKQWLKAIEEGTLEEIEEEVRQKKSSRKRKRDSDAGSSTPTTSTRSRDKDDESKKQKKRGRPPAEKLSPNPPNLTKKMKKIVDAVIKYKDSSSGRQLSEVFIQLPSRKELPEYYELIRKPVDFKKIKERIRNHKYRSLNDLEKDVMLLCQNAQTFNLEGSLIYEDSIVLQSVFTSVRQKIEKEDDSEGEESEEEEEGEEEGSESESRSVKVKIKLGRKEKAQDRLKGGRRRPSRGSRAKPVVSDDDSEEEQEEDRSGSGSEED
UniProt Q12824: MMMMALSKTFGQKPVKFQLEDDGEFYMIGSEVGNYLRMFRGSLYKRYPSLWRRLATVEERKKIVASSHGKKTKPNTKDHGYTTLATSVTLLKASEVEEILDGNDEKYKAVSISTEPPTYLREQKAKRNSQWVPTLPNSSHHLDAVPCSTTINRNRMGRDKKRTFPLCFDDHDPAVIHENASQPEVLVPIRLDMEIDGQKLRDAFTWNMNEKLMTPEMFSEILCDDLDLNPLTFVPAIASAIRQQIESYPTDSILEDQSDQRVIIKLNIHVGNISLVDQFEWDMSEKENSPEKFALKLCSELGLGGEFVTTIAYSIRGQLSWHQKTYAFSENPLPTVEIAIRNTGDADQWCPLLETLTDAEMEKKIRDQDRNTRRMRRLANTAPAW

No constants are given. Whether binding was seen depends on the method and setting. Binding seen in cells or lysates may run through a third protein. These calls come from enrichment with a bait or labelling near it, and not all partners need be listed.

For this assay, the target named is AT-rich interactive domain-containing protein 1A (human (endogenous in HBLAK and UROtsa)) (UniProt O14497). In words: affinity purification with mass spectrometry; co-IP of endogenous ARID1A with antibody D2A8U against rabbit IgG isotype control from HBLAK and UROtsa lysates (IP-1: 20 mM HEPES pH 7.4, 150 mM NaCl, 0.5% NP-40, 2 mM EDTA); SDS/PAGE, trypsin digest, nanoLC-MS/MS, label-free quantitation; three biological replicates; consensus of proteins enriched more than 10-fold in both cell lines.

As for SMARCA4 (from UniProt P51532 1-1647), the binding result is on record as “binds”.

With SMARCB1 (from UniProt Q12824 1-385), the binding result is listed as “binds”.
